Experimental data published in article PMC4669821.
These are yes or no findings as the source states them, for the method shown. Binding seen in cells or lysates may run through a third protein. Some results given as binding are weak or reduced against the parent protein; the word gives no strength. For some assays here: Tags and fused reporters may be left off the sequences shown. Values belong to the molecule of their own block, whether it stands above or below them.

Sequences of proteins named here, by UniProt entry; tags and fusion partners are left off.
UniProt Q92793: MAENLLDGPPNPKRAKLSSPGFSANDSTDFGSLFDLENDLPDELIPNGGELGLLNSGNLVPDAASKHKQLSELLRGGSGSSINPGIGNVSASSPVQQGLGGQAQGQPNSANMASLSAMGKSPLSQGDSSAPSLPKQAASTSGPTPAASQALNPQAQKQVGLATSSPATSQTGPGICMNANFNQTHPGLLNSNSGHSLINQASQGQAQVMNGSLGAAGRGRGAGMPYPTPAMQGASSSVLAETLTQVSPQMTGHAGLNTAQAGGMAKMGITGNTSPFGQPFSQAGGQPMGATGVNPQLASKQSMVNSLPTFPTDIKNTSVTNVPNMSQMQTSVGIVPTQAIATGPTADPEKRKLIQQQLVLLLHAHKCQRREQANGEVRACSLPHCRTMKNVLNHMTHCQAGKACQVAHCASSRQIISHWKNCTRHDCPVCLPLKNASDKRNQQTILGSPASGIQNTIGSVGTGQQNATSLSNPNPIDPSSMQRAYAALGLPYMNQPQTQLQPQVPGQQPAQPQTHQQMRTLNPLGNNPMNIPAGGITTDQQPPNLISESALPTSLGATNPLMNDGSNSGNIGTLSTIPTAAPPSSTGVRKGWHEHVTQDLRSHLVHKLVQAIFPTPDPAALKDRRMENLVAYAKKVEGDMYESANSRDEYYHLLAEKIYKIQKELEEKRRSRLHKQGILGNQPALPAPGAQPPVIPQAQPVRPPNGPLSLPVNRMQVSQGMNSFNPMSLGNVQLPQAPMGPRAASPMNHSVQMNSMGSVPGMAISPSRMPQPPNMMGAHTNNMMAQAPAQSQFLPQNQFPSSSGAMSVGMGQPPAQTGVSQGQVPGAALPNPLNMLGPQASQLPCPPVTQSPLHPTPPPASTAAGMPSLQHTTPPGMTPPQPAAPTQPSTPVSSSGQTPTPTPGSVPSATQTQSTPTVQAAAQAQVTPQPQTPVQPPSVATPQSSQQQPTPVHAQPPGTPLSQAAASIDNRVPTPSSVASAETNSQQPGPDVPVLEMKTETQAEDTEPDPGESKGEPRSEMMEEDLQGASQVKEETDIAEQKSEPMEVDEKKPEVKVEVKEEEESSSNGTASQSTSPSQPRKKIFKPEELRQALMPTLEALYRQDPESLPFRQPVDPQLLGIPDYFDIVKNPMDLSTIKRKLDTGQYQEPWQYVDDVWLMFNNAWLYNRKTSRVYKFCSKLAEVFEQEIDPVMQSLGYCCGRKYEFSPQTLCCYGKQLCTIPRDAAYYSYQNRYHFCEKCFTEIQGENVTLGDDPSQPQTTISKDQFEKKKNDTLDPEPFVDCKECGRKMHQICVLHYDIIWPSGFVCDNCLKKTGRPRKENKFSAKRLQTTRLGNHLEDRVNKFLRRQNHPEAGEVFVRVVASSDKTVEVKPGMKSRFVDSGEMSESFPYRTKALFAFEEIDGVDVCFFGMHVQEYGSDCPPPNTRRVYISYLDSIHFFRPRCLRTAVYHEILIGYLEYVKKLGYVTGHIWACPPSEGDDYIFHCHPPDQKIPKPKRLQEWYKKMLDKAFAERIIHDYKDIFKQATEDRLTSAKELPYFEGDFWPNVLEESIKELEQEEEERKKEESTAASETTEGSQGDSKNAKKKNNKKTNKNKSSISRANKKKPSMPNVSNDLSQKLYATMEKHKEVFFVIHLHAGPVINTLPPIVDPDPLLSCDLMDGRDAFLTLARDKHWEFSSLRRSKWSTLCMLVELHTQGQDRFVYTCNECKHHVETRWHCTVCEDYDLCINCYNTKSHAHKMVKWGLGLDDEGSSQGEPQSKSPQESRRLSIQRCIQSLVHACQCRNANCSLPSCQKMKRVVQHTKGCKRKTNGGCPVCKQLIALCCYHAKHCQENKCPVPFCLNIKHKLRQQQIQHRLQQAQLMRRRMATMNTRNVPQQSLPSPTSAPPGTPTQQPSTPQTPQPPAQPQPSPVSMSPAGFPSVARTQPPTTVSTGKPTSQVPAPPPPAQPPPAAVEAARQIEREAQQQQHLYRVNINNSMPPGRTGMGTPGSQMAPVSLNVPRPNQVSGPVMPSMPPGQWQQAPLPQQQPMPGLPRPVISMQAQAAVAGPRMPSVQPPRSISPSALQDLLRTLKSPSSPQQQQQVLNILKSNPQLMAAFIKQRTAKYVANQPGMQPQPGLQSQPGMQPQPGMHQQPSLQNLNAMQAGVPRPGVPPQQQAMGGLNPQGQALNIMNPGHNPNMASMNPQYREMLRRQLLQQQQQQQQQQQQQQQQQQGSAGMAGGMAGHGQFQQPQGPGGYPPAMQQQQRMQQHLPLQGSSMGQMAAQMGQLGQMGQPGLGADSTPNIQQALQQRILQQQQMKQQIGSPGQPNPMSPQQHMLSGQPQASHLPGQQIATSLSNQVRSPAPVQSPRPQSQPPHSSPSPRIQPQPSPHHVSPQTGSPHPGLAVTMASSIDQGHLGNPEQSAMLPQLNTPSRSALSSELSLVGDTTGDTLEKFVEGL
UniProt Q09472: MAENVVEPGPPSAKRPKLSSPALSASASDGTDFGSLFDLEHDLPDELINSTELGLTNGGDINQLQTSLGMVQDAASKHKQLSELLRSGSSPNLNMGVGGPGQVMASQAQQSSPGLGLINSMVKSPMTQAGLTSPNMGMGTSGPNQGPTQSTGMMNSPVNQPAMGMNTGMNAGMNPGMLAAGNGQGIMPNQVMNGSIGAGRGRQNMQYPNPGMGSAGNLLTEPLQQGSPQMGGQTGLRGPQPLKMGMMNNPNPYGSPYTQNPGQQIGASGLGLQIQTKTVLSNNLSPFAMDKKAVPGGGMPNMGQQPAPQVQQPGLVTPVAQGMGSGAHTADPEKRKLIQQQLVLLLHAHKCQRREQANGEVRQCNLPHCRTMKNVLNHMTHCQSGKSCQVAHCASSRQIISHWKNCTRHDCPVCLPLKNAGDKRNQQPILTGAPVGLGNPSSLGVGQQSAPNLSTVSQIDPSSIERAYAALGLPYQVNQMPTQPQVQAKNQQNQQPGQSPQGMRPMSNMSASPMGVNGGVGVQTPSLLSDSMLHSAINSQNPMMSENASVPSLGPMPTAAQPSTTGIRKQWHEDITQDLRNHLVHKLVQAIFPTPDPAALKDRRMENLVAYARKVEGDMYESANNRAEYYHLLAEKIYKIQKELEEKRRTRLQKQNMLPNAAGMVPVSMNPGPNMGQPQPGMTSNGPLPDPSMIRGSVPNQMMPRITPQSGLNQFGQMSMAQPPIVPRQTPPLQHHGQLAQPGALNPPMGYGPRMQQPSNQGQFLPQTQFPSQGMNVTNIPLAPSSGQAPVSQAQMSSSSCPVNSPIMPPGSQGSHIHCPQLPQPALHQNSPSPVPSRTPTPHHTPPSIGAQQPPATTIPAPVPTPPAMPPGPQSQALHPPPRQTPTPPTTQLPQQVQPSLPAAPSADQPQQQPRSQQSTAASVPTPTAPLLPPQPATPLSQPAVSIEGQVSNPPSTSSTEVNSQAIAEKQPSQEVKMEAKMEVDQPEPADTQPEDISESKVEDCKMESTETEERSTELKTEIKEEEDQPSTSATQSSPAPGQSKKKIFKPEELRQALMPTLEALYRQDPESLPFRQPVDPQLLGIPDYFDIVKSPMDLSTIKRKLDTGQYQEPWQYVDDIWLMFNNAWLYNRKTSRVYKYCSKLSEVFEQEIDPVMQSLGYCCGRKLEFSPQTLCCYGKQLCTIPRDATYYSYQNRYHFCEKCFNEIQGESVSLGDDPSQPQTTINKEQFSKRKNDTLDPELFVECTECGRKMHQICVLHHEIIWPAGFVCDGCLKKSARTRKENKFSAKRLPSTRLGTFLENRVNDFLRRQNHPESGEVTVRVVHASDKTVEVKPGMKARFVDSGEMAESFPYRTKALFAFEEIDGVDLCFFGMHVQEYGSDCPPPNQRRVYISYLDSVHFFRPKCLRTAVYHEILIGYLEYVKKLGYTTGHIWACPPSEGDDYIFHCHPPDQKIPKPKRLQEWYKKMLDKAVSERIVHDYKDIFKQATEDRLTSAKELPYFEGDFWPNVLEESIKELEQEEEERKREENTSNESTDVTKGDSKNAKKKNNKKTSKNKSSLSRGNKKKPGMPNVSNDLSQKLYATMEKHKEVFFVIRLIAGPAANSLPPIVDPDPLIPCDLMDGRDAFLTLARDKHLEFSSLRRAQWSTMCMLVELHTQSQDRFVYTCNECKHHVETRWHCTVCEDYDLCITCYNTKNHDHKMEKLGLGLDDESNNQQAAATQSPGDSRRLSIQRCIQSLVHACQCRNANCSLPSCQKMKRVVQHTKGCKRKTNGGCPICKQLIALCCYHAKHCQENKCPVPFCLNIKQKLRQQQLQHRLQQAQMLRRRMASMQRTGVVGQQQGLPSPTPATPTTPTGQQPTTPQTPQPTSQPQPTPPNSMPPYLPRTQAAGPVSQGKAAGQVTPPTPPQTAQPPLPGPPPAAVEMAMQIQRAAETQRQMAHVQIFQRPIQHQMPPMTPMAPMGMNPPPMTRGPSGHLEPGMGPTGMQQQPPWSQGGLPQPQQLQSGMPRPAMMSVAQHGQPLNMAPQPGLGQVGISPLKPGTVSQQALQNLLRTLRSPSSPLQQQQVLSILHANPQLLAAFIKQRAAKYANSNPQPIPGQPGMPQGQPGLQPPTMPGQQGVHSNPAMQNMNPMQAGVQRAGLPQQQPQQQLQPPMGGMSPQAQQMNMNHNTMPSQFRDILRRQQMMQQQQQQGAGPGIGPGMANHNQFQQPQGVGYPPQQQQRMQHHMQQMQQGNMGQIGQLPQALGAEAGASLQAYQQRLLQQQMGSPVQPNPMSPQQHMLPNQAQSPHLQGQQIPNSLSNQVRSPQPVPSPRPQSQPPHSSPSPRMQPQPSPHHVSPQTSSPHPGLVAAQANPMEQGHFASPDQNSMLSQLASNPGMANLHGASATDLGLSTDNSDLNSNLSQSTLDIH

What was measured:
[1] = molecular target: T1, iASPP-V5 (transiently overexpressed) (UniProt Q8WUF5); assay: co-IP; HCT116 transiently transfected with iASPP-V5 or empty vector, 20 uM cisplatin for 24 h; immunoprecipitation with anti-V5 antibody, immunoblot of endogenous CBP
T1 sequence: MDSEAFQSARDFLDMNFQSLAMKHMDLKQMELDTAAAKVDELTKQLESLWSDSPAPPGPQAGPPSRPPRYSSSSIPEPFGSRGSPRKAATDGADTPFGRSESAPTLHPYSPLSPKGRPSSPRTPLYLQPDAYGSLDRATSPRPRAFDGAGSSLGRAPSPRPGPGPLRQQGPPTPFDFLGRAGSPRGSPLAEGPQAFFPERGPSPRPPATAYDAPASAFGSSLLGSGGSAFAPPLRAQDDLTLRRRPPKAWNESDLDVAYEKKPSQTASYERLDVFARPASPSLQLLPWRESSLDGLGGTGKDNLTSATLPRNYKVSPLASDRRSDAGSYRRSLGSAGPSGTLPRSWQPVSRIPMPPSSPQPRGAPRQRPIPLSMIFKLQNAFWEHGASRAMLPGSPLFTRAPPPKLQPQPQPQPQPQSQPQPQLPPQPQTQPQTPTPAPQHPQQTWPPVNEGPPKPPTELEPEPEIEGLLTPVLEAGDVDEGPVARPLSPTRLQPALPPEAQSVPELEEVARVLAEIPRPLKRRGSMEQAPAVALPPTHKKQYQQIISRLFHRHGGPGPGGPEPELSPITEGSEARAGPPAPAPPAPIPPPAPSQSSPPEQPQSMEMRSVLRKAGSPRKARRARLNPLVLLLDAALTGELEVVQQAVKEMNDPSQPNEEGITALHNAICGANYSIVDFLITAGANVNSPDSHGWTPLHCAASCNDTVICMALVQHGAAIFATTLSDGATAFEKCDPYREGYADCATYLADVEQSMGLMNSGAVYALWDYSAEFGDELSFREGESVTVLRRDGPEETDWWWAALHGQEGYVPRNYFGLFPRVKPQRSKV

[2] = substrate: CBP (CREB-binding protein), endogenous (human (endogenous in HCT116)) (UniProt Q92793); assay: co-IP; HCT116 transiently transfected with BRMS1-GFP alone or with iASPP-V5; 20 uM cisplatin for 16 h, 20 uM MG132 for the last 4 h; immunoprecipitation with anti-CBP antibody or isotype-matched IgG, overnight at 4 C
[3] = molecular target: p300 (histone acetyltransferase), endogenous (human (endogenous in HCT116)) (UniProt Q09472); assay: co-IP; endogenous proteins; lysates of HCT116 cells treated with 20 uM cisplatin for 16 h; control reaction with IgG antibody
[4] = molecular target: p300 (histone acetyltransferase), endogenous (human (endogenous in HCT116)) (UniProt Q09472); assay: condition: only untreated cells (normal growth conditions, no cisplatin); co-IP; endogenous proteins; lysates of untreated HCT116 cells (normal growth conditions); control reaction with IgG antibody

binding [1]: binds
Molecule: CBP (CREB-binding protein), endogenous (from UniProt Q92793 1-2442)

binding [2]: binds
B1: BRMS1-GFP (protein, UniProt Q9HCU9 1-246)
chain: MPVQPPSKDTEEMEAEGDSAAEMNGEEEESEEERSGSQTESEEESSEMDDEDYERRRSECVSEMLDLEKQFSELKEKLFRERLSQLRLRLEEVGAERAPEYTEPLGGLQRSLKIRIQVAGIYKGFCLDVIRNKYECELQGAKQHLESEKLLLYDTLQGELQERIQRLEEDRQSLDLSSEWWDDKLHARGSSRSWDSLPPSKRKKAPLVSGPYIVYMLQEIDILEDWTAIKKARAAVSPQKRKSDGP

binding [3]: binds
binding [4]: no binding
B2: iASPP (inhibitory apoptosis stimulating protein of p53), endogenous (protein, UniProt Q8WUF5 1-828)
chain: MDSEAFQSARDFLDMNFQSLAMKHMDLKQMELDTAAAKVDELTKQLESLWSDSPAPPGPQAGPPSRPPRYSSSSIPEPFGSRGSPRKAATDGADTPFGRSESAPTLHPYSPLSPKGRPSSPRTPLYLQPDAYGSLDRATSPRPRAFDGAGSSLGRAPSPRPGPGPLRQQGPPTPFDFLGRAGSPRGSPLAEGPQAFFPERGPSPRPPATAYDAPASAFGSSLLGSGGSAFAPPLRAQDDLTLRRRPPKAWNESDLDVAYEKKPSQTASYERLDVFARPASPSLQLLPWRESSLDGLGGTGKDNLTSATLPRNYKVSPLASDRRSDAGSYRRSLGSAGPSGTLPRSWQPVSRIPMPPSSPQPRGAPRQRPIPLSMIFKLQNAFWEHGASRAMLPGSPLFTRAPPPKLQPQPQPQPQPQSQPQPQLPPQPQTQPQTPTPAPQHPQQTWPPVNEGPPKPPTELEPEPEIEGLLTPVLEAGDVDEGPVARPLSPTRLQPALPPEAQSVPELEEVARVLAEIPRPLKRRGSMEQAPAVALPPTHKKQYQQIISRLFHRHGGPGPGGPEPELSPITEGSEARAGPPAPAPPAPIPPPAPSQSSPPEQPQSMEMRSVLRKAGSPRKARRARLNPLVLLLDAALTGELEVVQQAVKEMNDPSQPNEEGITALHNAICGANYSIVDFLITAGANVNSPDSHGWTPLHCAASCNDTVICMALVQHGAAIFATTLSDGATAFEKCDPYREGYADCATYLADVEQSMGLMNSGAVYALWDYSAEFGDELSFREGESVTVLRRDGPEETDWWWAALHGQEGYVPRNYFGLFPRVKPQRSKV

binding [3]: binds
B3: TAp73, endogenous (protein, UniProt O15350 1-636)
chain: MAQSTATSPDGGTTFEHLWSSLEPDSTYFDLPQSSRGNNEVVGGTDSSMDVFHLEGMTTSVMAQFNLLSSTMDQMSSRAASASPYTPEHAASVPTHSPYAQPSSTFDTMSPAPVIPSNTDYPGPHHFEVTFQQSSTAKSATWTYSPLLKKLYCQIAKTCPIQIKVSTPPPPGTAIRAMPVYKKAEHVTDVVKRCPNHELGRDFNEGQSAPASHLIRVEGNNLSQYVDDPVTGRQSVVVPYEPPQVGTEFTTILYNFMCNSSCVGGMNRRPILIIITLEMRDGQVLGRRSFEGRICACPGRDRKADEDHYREQQALNESSAKNGAASKRAFKQSPPAVPALGAGVKKRRHGDEDTYYLQVRGRENFEILMKLKESLELMELVPQPLVDSYRQQQQLLQRPSHLQPPSYGPVLSPMNKVHGGMNKLPSVNQLVGQPPPHSSAATPNLGPVGPGMLNNHGHAVPANGEMSSSHSAQSMVSGSHCTPPPPYHADPSLVSFLTGLGCPNCIEYFTSQGLQSIYHLQNLTIEDLGALKIPEQYRMTIWRGLQDLKQGHDYSTAQQLLRSSNAATISIGGSGELQRQRVMEAVHFRVRHTITIPNRGGPGGGPDEWADFGFDLPDCKARKQPIKEEFTEAEIH
